No constants are given. Whether binding was seen depends on the method and setting. Some results given as binding are weak or reduced against the parent protein; the word gives no strength.
Target: soluble IL6-R in cynomolgus plasma (cynomolgus monkey (Macaca fascicularis))
Assay: FACS on U266 cells in presence of cynomolgus plasma

binding: binds
B1: IL6R04 (VHH)
VHH: EVQLVESGGGLVQAGGSLRLSCAASGFTFDDYDIGWFRQAPGKEREGVSGISSSDGNTYYADSVKGRFTISSDNAKNTVYLQMNSLKPEDTAVYYCAAEPPDSSWYLDGSPEFFKYWGQGTQVTVSS
notes: also called PMP32C9; PMP 32 C9

From patent publication US20140221623A1 (Ablynx, published 2014)
